The whole screen tested about 52,000 sequences, of which about 210 (0.4%) were called active.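 How the source made its calls: active means gene whose silencing raises cell survival under the drug, median off-target-corrected z-score across its silencing RNAs 2 or more; inactive means the rest.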 Some of the results follow.
test: Resistance to Poly (ADP-Ribose) Polymerase inhibitor: Gene Identification via Genome-wide siRNA Screen; conditions: mouse BRCA2 R2336H ES cells, olaparib, CellTiter-Glo viability; stronger effect = higher value
Procedure, shortened: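 Mouse BRCA2 R2336H ES cells were reverse-transfected with siRNA (20 nM final), treated at 48 h with 500 nM olaparib, and read by CellTiter-Glo after 72 h. Scores: MAD-based z per siRNA, median per gene, seed off-target correction.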

Sequence	z-score
GGGACCGUCUUAAACAUCUTT against 2410005K20Rik	inactive: -0.496
CCGUAUUGUCACUUGUGGGTT against Arpc1a	inactive: 0.218
GGGAGGAGGACAACAAGUATT against Smap1	inactive: -0.144
GCACAAAUACAGGUCGUCUTT against Zc3hdc5	inactive: -1.46
GGGUGGAGUGAAAUACUUUTT against MGC27770	inactive: 0.298
GGCUCUGUGCAGACAUUUCTT against Pop5	inactive: -0.0511
GCCGAUCACACAGUGGAAATT against Spin2	inactive: 0.773
GGAGUUUGUGGAUGACUUUTT against Rsn	inactive: 0.235
GCUGUCACGAGGAAUCAUGTT against Scarf2	inactive: 1.21
CCAAGAAAUUGCACUGGGATT against A130050O07Rik	inactive: 0.217
GGCUACCACAUCUGAUAACTT against Serpind1	inactive: -1.25
GGAGAACAGAUAAAUAGUGTT against Msh2	inactive: -0.135
GGACCUGCGUUUUGGCACATT against 9430007A20Rik	inactive: 0.306
GGCUUACCGUACCUUCCAATT against Cntf	inactive: -2.26
GCAAUAAAGCUCCUUCCAUTT against Ctrc	inactive: -0.714
GGCUAAUGAUCAGGAUAUUTT against Cdh8	inactive: 0.716
GGAGAGAACUGGAAGAGAGTT against 0610040D20Rik	inactive: -2.18
GGUGUCUGAAUUUGUGGCUTT against Abtb1	inactive: 1.65
CCUAUGCAUCAGACCUUUGTT against Nedd9	inactive: -0.864
GGGAGAGGUAUGUCUGUAATT against Il15ra	inactive: -1.95
GGAGUACAGCUGUGUAAUATT against Pcna	inactive: -3.05
GGCGGGUAGAUAUCAUGGGTT against Obfc1	inactive: 1.73
GGGCUUAUUCUCAGUUCUGTT against Slc17a1	inactive: -0.646
GCGAUUGAGAGGCUACACUTT against Pigb	inactive: -0.799
CCUUUUCCCGCUCUUAAAATT against Olfr1260	inactive: 0.248
GGCAAUUACUUCAUUGAUCTT against Kctd6	inactive: -0.144

Laid out differently: entries from further up

| Sequence | z-score |
| --- | --- |
| GCACAAAUACAGGUCGUCUTT against Zc3hdc5 | inactive: -1.46 |
| GGGUGGAGUGAAAUACUUUTT against MGC27770 | inactive: 0.298 |
| GGCUCUGUGCAGACAUUUCTT against Pop5 | inactive: -0.0511 |
| GCCGAUCACACAGUGGAAATT against Spin2 | inactive: 0.773 |
| GGAGUUUGUGGAUGACUUUTT against Rsn | inactive: 0.235 |

The list goes on.

Sequence	z-score
GGGUAAAAAGACGAAGAAATT against D530031C13Rik	inactive: 0.0509
GGAUCUGGCAUUCAGAUAATT against Oazin	inactive: 0.544
CGCAGUGUAUGAUUAUAUATT against Dp1	inactive: 1.38
GGAUGAAUCUGAAGAUUCCTT against Nol3	inactive: 1.63
GGUUUUGUCACCAUAGCCATT against 3110040N11Rik	inactive: 1.82
GGAGGAAGAAGAGAUACCUTT against Foxh1	inactive: -0.259
GCUCCUGGUCUCAUUUACATT against BC066223	inactive: -0.915
GGUGAACCUGUCAAACCUUTT against Hspbap1	inactive: 1.37
GGUGUCUGCUUCUUCAAAGTT against Slc25a26	inactive: -2.64
GGGACAUUUUCUUCUUUAUTT against Gch1	inactive: 0.734
GGAGAGAACAUUGAACAAATT against Ssx2ip	inactive: -0.43
GGAAUGAAAGAGAAAGAUUTT against C530050O22Rik	inactive: -0.728
AACCAACUCAGCUUACAUUTT against D9Ertd402e	inactive: 1.06
CCAAGAGAUCCUUAUUAAATT against 1110005F07Rik	inactive: -0.486
GGGCUUUCUAUGCUGGAGGTT against Atp8b3	inactive: 1.75
GGCACGGAAAUCUUUACAATT against 1110039B18Rik	inactive: 0.269
GGAAUUUUAGCCAAGACAATT against Bbs4	inactive: 0.295
GGAAUGGAAACAGAGUUAUTT against 9930016F01Rik	inactive: 0.53
GGCUCUGUACCAUGAGGAATT against Krt2-16	inactive: -0.23
GGGCUUCAGAAGAGAAAAUTT against 1100001H23Rik	inactive: -0.589
GUUAACCCUGAGCCUAAACTT against Spata3	inactive: 1.56
GCAUUGUGAUGACCACCUGTT against Slc10a1	inactive: -0.219
GGAUAUGAACCCUACUCUUTT against 6430550H21Rik	inactive: -1.5
GCGAGCUCAGAUCAAAUAGTT against Acsl3	inactive: -2.48
GCAUUGAGGAACGACUCACTT against 4921521J11Rik	inactive: 0.642
GAUUUGCUACUCCUCUACGTT against Olfr1273	inactive: 0.538

Sequence	z-score
GGAGAAAUGUCAGUGCGAUTT against Mlc1	inactive: -1.21
GAUUUCUUUGUGUCAUUGATT against V1rc12	inactive: -0.733
GGCAGAAAGUUAUUAUAGGTT against BC005764	inactive: 0.818
GGUCAACUCUACCAUAUCATT against Tnfsf8	inactive: 0.94
GGAACAGGGCAGUAAGACCTT against Dhcr24	inactive: 0.743
GGCCCUCAAAAAUCACGAGTT against Ehd1	inactive: 1.72
GCUCCAGAUGGGUAGAUCUTT against 2210013M04Rik	inactive: 1.06
GGAAGAUGAAGAUGAGAAUTT against Igbp1b	inactive: -2.53
GGCUGCAUGGUACAGAUCUTT against Olfr463	inactive: -1.7
GGAUACCAUGGUCGUCUGATT against 1700020O03Rik	inactive: 0.0513
GGAAGAGUAAAGGAGAUUUTT against Spop	inactive: -2.04
GGACACAAAAGUUCACAUUTT against Smpx	inactive: -0.379
GGAUUCUGACAAAACUGGATT against Nt5c1b	inactive: -0.477
GGAGCAUCACUCUUAACAUTT against Krt2-6g	inactive: 2.34
GCGAUGUGGCCUAAAUAGGTT against Igfals	inactive: -0.243
GGACAGUCAUUACCAAAAATT against Topors	inactive: -2.16
CCAAUAAAAGUUGAGAGCUTT against Krt1-18	inactive: 0.386
CCUGAUGGAUGAUGAAUCATT against Trap1a	inactive: 0.865
CGUGCUGACUCAUAACCUGTT against Dnclic2	inactive: 0.943
CGACACCAGUCUCAAUGAATT against Olfr368	inactive: 0.0364
GGAGCCUCUAGGAAACAAATT against Slc28a3	inactive: 0.575
GGCUACAUUUCUGUUCUGATT against Hist1h2be	inactive: 0.236
GCCACUUAGAAAACCGUGUTT against Cox7a1	inactive: -1.5
GCCCAAUAAAAUUGAAGGGTT against 4930479M11Rik	inactive: 0.532
GGAUUCUGGGCUGAAUGGGTT against Pcdh18	inactive: 0.583
CCUCAAGUCUGUGAAGAAATT against Tnni1	inactive: -1.63

Sequence	z-score
GCUAGAAGCCUGACAUUUUTT against Tbca	inactive: -1.85
GAUCAUCACAGAGGUCCAGTT against Fabp6	inactive: 0.231
GGCUGUAGUUGGCUAACACTT against Slc25a28	inactive: -1.74
GCUACGGACCAUGUUCAAGTT against C130036J11	inactive: -1.32
GGACCUCAUCUAUGCAUGUTT against Olfr1394	inactive: 0.236
GGUCAUUCAGCUGGAAGAUTT against Zfp143	inactive: 1.72
CACGGUAUAGCAGCUAUUATT against Mbtps2	inactive: -1.65
GCUGUUCCACAUUGAAGUGTT against Pcdh18	inactive: 0.115
GCACAGGCUUAUGUUCCACTT against V1rd20	inactive: -1.89
GGAGUCUAAACUGACAAACTT against 1700088E04Rik	inactive: -0.00276
GGAUGAUGCCGAUUACUUCTT against Vpreb3	inactive: -0.00674
CCCUGGGUGUACAAGUCCUTT against 4933406J04Rik	inactive: 0.573
CCGACAGUCUUGAUAUUAATT against Cbx5	inactive: 0.988
GGAUGUCAAACUCGCCCUGTT against Olfr61	inactive: 0.307
GGACUAACAACUCUGGUCUTT against Mea1	inactive: -2.46
GGACAUCCAGACUCUGAGATT against 2310004L02Rik	inactive: 0.232
GGUCUGUGGACUGAACUUATT against Bcl2l11	inactive: 0.73
CCUUUUUCUGGAUUGGAAUTT against Klrd1	active: 1.78
GGAAGAGAGAGACAAGGAUTT against Dap	inactive: -1.91
GCAUAGUGAACACAAACGGTT against Rgs14	inactive: 1.17
GGAGGUUGCUACAUGGUUATT against 6530401C20Rik	inactive: 0.821
GGAGAAAGGAUUGUGUUUGTT against Mgl1	inactive: 1.01
GGUAAAGAAGAUCGACAGCTT against Adrb1	inactive: -0.362
GUACAACCACUAUGGCGACTT against Mfap2	inactive: -0.877
GCAUAUUCUUCCAACUUCCTT against Sp8	inactive: 1.2
GGGCAUAGAGUCUCAAACUTT against Ptger1	inactive: 0.492
